In article PMC8322665 one finds binding data, which are given here for one substance.

By UniProt entry, the sequences of proteins in these tests, tags left out. Residues count along the entry.
UniProt P60903: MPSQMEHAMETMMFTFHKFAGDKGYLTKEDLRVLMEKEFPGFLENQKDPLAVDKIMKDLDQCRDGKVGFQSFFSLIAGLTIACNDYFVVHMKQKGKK
UniProt P63165, residues 1-97: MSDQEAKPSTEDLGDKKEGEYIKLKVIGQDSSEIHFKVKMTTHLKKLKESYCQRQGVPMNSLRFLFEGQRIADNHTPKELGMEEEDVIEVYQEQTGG

No constants are given. Whether binding was seen depends on the method and setting. In cells and extracts the contact can be indirect. Some results given as binding are weak or reduced against the parent protein; the word gives no strength.

The assay has as its target S100A10 (human (endogenous in LoVo and HCT116)) (UniProt P60903). The assay is described as follows: co-IP; total cell lysates of LoVo and HCT116 cells immunoprecipitated with anti-S100A10 and immunoblotted with anti-ubiquitin (linkage-specific K48), anti-SUMO1 or anti-SUMO2/3; control cells, PGCCs with daughter cells after CoCl2 treatment, and (SUMO1 only) cells after 5-Fu or Oxa treatment; all proteins endogenous. In general terms: Immunoblotting shows a protein as a band on a membrane.

As to SUMO1 (from UniProt P63165 1-97), the binding result is reported as “binds”.
